Data reported in publication PMC10163288.
The list shows a part of the results.

B1: il2ra_site2_3nfp_sap_10_mot_HHH_b2_06904_af2_000000235_0001_1_14_H_._1d6b5438aa0d917bea2962dcb63062e6_0001_1_af2_0001_0000300046_0000001_0_0001 (protein)
chain: SSSSNMRELILRAAKEFAEEANDPEVLREIEELEEEYRREGDPEYVRRAFELAQELAEKQSSSSS
B2: il2ra_site2_3nfp_sap_19_mot_HHH_b1_04031_af2_000000136_0001_1_21_H_._HHH_b1_03651_0001_0000100008_0000001_0_0001 (protein)
chain: SSSSSKSEEYLRLAIELAKEAEEQGDPEAAREHLEIALLAAELLNDEEIREEVERLLEEVSSSSS
B3: il2ra_site2_3nfp_sap_13_mot_HHH_b2_00236_af2_000000197_0001_23_39_H_._HHH_b1_04954_0001_0000300022_0000001_0_0001 (protein)
chain: SSSSSSSEEEVEKALQDARHAEDPEHARLALRLALAHALVFGDEELRKEIEELLEKLNSSSSSSS
B4: il2ra_site1_3nfp_normal_mot_cdc2c7e6ec3782e52408388447766025_0001_af2_000000293_0001_19_33_H_._2f69edf39d0b4cbfc537af338e4f3bc0_0001_af2_0001_0000200013_0000001 … (protein)
chain: PAVEFFFRAAKKSGISPEKIAKKLLEDAERALGDPEKAKELLKEFLEKLLGDPEEAEELLEEAEK
B5: il2ra_site2_3nfp_sap_22_mot_HHH_b1_02297_000000279_0001_41_58_H_._HHH_b1_00061_0001_0000500028_0000001_0_0001 (protein)
chain: SSSDESEEIFEEARKELERLLEEGDRKEASELTWEALRLLQELGDWRLVAKLYEILVRAYRSSSS
B6: il2ra_site2_3nfp_normal_mot_HHH_b1_00660_af2_000000090_0001_40_57_H_._HHH_b2_02332_0001_0000400063_0000001_0_af2pred_0001_1_af2pred_swapped (protein)
chain: SSSSSSEEVEELLKEAQRLLEEGDPEEARRVLHRAATIAAELGDHELFAELLNLLEKIESSSSSS
B7: il2ra_site1_1z92_normal_mot_1581cc1c700002558836ca695aafbf97_0001_1_af2_000000099_0001_17_32_H_._HHH_b2_05050_0001_0000200016_0000001_0 (protein)
chain: SSSSDEEVERLVEELVREFNLSERQERSLRIAARAAEEFGADPRVVERDLERFVEFLKRKGSSSS
B8: il2ra_site2_3nfp_normal_mot_HHH_b2_03978_000000149_0001_1_20_H_._89d51094ace004f14de90db6817c454c_0001_0001_0000500017_0000001_0 (protein)
chain: SELLRLAAEAYRRGDEELFALVSEAVHALEQGVPPEEIEELLEERAKAAGIPPEVLELVEEAVRT
B9: il2ra_site2_2erj_sap_24_mot_a018c15928f351c43b00908d5a7ba3e0_0001_000000190_0001_17_32_H_._64acf9c47b58a7ae4252630f76d6e6b2_0001_1_0001_0000300012_0000001_0_000 … (protein)
chain: SSSSDLEEEAERLVEELVREFGADERDELFLRSLAKKLARAGLSPEEIERALRESIEATRSSSSS
B10: il2ra_site1_3nfp_normal_mot_HHH_b1_00232_af2_000000283_0001_22_38_H_._HHH_b2_06365_0001_0000100005_0000001_0_af2pred_0001_af2pred_1 (protein)
chain: SSSSSSDAEELALELAQEAYERGDEERARKLLERFLEDLKRFNNEDNFEEVEELLKELSSSSSSS
B11: il2ra_site2_2erj_normal_mot_6bd1339e93f6fdda22195c76da45ec5d_0001_000000136_0001_37_51_H_._HHH_b2_00810_af2_0001_0000100002_0000001_0_1_af2pred_0001_1_af2pred_s … (protein)
chain: SSSSDEEYREEVEELLEEAKEIEDPEEAASVLSEAMELAHEGRDEELLRLVSKVFTRLARGSSSS
B12: il2ra_site2_2erj_sap_33_mot_HHH_b2_01204_af2_000000056_0001_19_34_H_._HHH_b2_00547_0001_0000600024_0000001_0_0001 (protein)
chain: SSSSSDELREAYELANILSHLVARNDREEFERISEEFEELVERLDSENAREILESLKRLISSSSS
B13: il2ra_site2_2erj_sap_29_mot_ems_p1-14H-GABBL-16H-GABBL-15H_0014_0001_0001_0001_000000124_0001_40_55_H_._31027dcbc75156a1ce7eef07f04df53c_0001_af2_0001_000070001 … (protein)
chain: LEEEVLRAASIAIELAEKFSDDPEIFRLVAEAFTALARALEENDEEKIREVIEKIEEIKEEADSS
B14: il2ra_site2_3nfp_sap_17_mot_HHH_b1_02574_af2_000000209_0001_1_20_H_._2243060a2d62806e8f4e40d139fea760_0001_0001_0000500010_0000001_0_0001 (protein)
chain: SSSSNAEEYLKAVLELIRLALEEGDRETAEKLIKLLKQAIEDNNDEEARKELERLEEEVNSSSSS
B15: il2ra_site1_3nfp_normal_mot_HHH_b2_02159_000000237_0001_1_17_H_._ems_3hM_790_0001_0000300041_0000001_0_af2pred_0001_af2pred (protein)
chain: SSDEFFEELVRRVTKLAEEKNDEEVRELAEKALELWKEARENRDHEAAHEALRIVAKLQNLVLSS
B16: il2ra_site1_3nfp_sap_16_mot_1cdf5118dc85af3c372083cb498ffdc5_0001_af2_000000279_0001_1_12_H_._cff26900b2948c323735a169404cbef0_0001_1_0001_0000500014_0000001_1_ … (protein)
chain: DLEELEKEARELGNPAIQELLELIKEAERTKDPELSREILKLVAKLLLRGLIPPEFVEELAKLLA
B17: il2ra_site2_2erj_normal_mot_c2bf78bdce995293a161f7082e24b401_0001_af2_000000082_0001_17_32_H_._HHH_b2_01862_0001_0000700049_0000001_0 (protein)
chain: SSSSSDVEEEVQRLLEEAEEAYEEGDLELVYELANEALHLASRHQDEEAQRLIWEVFERLSSSSS
B18: il2ra_site2_2erj_normal_mot_HHH_b2_00789_000000198_0001_40_54_H_._HHH_b2_03822_0001_0000200007_0000001_0 (protein)
chain: SSSSSSEDEERVRELLEQAEETSDLEEAYRLLVEALQVAYESGDEELQRLVMEVAERLANSSSSS

Molecular target: il2ra, P01589
Experiment: yeast display titration

Apparent Kd, inactive:
B1 no binding seen
B2 no binding seen
B3 no binding seen
B4 no binding seen
B5 no binding seen
B6 no binding seen
B7 no binding seen
B8 no binding seen
B9 no binding seen
B10 no binding seen
B11 no binding seen
B12 no binding seen
B13 no binding seen
B14 no binding seen
B15 no binding seen
B16 no binding seen
B17 no binding seen
B18 no binding seen

Two records drawn at random from those above, as already listed:
Apparent Kd, inactive:
B1 no binding seen
B6 no binding seen
